From US20110143197A1, “ELECTRODE ACTIVE MATERIAL FOR POWER STORAGE DEVICE AND POWER STORAGE DEVICE, AND ELECTRONIC EQUIPMENT AND TRANSPORTATION EQUIPMENT” (priority 2008, published 2011)

Experiment: Coin battery charge-discharge test (metal lithium negative electrode), Test Example 3
Conditions: for Repetition capacity retention rate: charge-discharge capacity at the 20th cycle relative to the initial cycle; for Utilization rate: charge-discharge capacity with respect to the theoretical capacity; for Capacity Charge-discharge capacity: per gram of positive electrode active material, from initial discharge capacity, 0.2 C rate, 2.0 V to 4.0 V
Excerpt: A coin battery as shown in FIG. 5 was fabricated as one example of the power storage device of the present invention. FIG. 5 is a vertical cross-sectional view schematically showing a configuration of a coin battery 1 that is one example of the power storage device of the present invention.
A positive electrode includes a positive electrode current collector 12 made of an aluminum foil and a positive electrode active material layer 13 formed on the positive electrode current collector 12 and containing the phenanthrenequinone-containing compound (1a). The positive electrode was produced in the same manner as in the electrode production method in Test Example 2. This positive electrode was disposed such that the positive electrode current collector 12 was brought into contact with the inner surface of a case 11, and a separator 14 made of a porous polyethylene sheet was placed on the positive electrode.
Then, a non-aqueous electrolyte was injected into the case 11. As the non-aqueous electrolyte, an electrolyte prepared by dissolving lithium hexafluorophosphate in a concentration of 1.25 mol/L in a solvent mixture containing ethylene carbonate and ethylmethyl carbonate (weight ratio 1:3) was used.
Meanwhile, a negative electrode current collector 17 and a negative electrode active material layer 16 were press-fitted in this order onto the inner surface of a sealing plate 15 to provide a negative electrode. As the negative electrode active material layer 16, a 300 μm-thick metal lithium was used. As the negative electrode current collector 17, a 100 μm-thick stainless steel foil was used.
The case 11 in which the positive electrode was provided and the sealing plate 15 on which the negative electrode was provided were stacked such that the negative electrode active material layer 16 was in pressure contact with the separator 14, with a gasket 18 being placed around the circumference, and then sealed by crimping using a pressing machine. Thus, a coin battery of the present invention having a thickness of 1.6 mm and a diameter of 20 mm was fabricated.
The coin batteries of the present invention obtained in Examples 11 to 18 and the coin battery of Comparative Example 1 were subjected to a charge-discharge test. The charge-discharge test was conducted under the charge-discharge conditions of a current value of 0.2 C rate (5 hour rate) with respect to the theoretical capacity of each coin battery and a voltage range from 2.0 V to 4.0 V. The charge-discharge test was started with discharging, and an interval of 5 minutes was set between discharging and charging, and between charging and discharging. The charge-discharge test was repeated 20 times.
The charge-discharge capacity was calculated based on the initial discharge capacity of each of the coin batteries. The utilization rate (%) is the percentage of the charge-discharge capacity with respect to the theoretical capacity. The repetition capacity retention rate (%) is the percentage of the charge-discharge capacity at the 20th cycle relative to the charge-discharge capacity at the initial cycle.

With O=C1C(=O)c2ccccc2-c2ccccc21 [9,10-phenanthrenequinone, reference compound] the “Repetition capacity retention rate” value was 15%, the Utilization rate was 65% and the “Capacity Charge-discharge capacity” value was 167 mAh/g.
For O=C1C(=O)c2cc(-c3ccc(-c4ccc5c(c4)C(=O)C(=O)c4ccccc4-5)cc3)ccc2-c2ccccc21 [Compound 1a, 1,4-(9,10-phenanthraquinone)-benzene], the “Repetition capacity retention rate” value was 75%, the Utilization rate was 80% and the “Capacity Charge-discharge capacity” value was 175 mAh/g.
For O=C1C(=O)c2cc(-c3ccc(-c4ccc5c(c4)C(=O)C(=O)c4ccccc4-5)s3)ccc2-c2ccccc21 [Compound 1i, 2,2′-(thiophene-2,5-diyl)diphenanthrene-9,10-dione], the “Repetition capacity retention rate” value was 79%, the Utilization rate was 83% and the “Capacity Charge-discharge capacity” value was 179 mAh/g.
